Measurements reported in patent US20150065343A1, “Acrylamide compounds for combating invertebrate pests” (priority 2012, published 2015).
Some of these results come from one statement about several compounds together.

Columns and labels:
Type in all cases: in vivo
[1] = system: Boll weevil (Anthonomus grandis); assay: B.10 Boll weevil microtiter plate test on insect diet with eggs; conditions: 2500 ppm; sprayed onto insect diet at 20 μl; egg and larval mortality after 5 days
Protocol: B.10 Boll weevil (Anthonomus grandis)
For evaluating control of boll weevil (Anthonomus grandis) the test unit consisted of 24-well-microtiter plates containing an insect diet and 20-30 A. grandis eggs.
The compounds were formulated using a solution containing 75% v/v water and 25% v/v DMSO. Different concentrations of formulated compounds were sprayed onto the insect diet at 20 μl, using a custom built micro atomizer, at two replications.
After application, microtiter plates were incubated at about 23±1° C. and about 50±5% relative humidity for 5 days. Egg and larval mortality was then visually assessed.

[2] = system: Southern armyworm (Spodoptera eridania); assay: B.7 Southern armyworm spray test on lima bean plants; conditions: 300 ppm; sprayed lima bean foliage; armyworm larvae; 4 days after treatment
Protocol: B.7 Southern armyworm (Spodoptera eridania)
The active compounds were formulated in cyclohexanone as a 10,000 ppm solution supplied in tubes. The tubes were inserted into an automated electrostatic sprayer equipped with an atomizing nozzle and they served as stock solutions for which lower dilutions were made in 50% acetone:50% water (v/v). A nonionic surfactant (Kinetic®) was included in the solution at a volume of 0.01% (v/v).
Lima bean plants (variety Sieva) were grown 2 plants to a pot and selected for treatment at the 1st true leaf stage. Test solutions were sprayed onto the foliage by an automated electrostatic plant sprayer equipped with an atomizing spray nozzle. The plants were dried in the sprayer fume hood and then removed from the sprayer. Each pot was placed into perforated plastic bags with a zip closure. About 10 to 11 armyworm larvae were placed into the bag and the bags zipped closed. Test plants were maintained in a growth room at about 25° C. and about 20-40% relative humidity for 4 days, avoiding direct exposure to fluorescent light (24 hour photoperiod) to prevent trapping of heat inside the bags. Mortality and reduced feeding were assessed 4 days after treatment, compared to untreated control plants.

[3] = system: Orchid thrips (dichromothrips corbetti); assay: B.5 Orchid thrips floral-immersion test; conditions: 500 ppm, adult thrips, after 4 days
Protocol: B.5 Orchid thrips (dichromothrips corbetti)
Dichromothaps corbetti adults used for bioassay were obtained from a colony maintained continuously under laboratory conditions. For testing purposes, the test compound was diluted to a concentration of 500 ppm (wt compound: vol diluent) in a 1:1 mixture of acetone:water (vol:vol), plus 0.01% vol/vol Kinetic® surfactant.
Thrips potency of each compound was evaluated by using a floral-immersion technique. Plastic petri dishes were used as test arenas. All petals of individual, intact orchid flowers were dipped into treatment solution and allowed to dry. Treated flowers were placed into individual petri dishes along with 10-15 adult thrips. The petri dishes were then covered with lids. All test arenas were held under continuous light and a temperature of about 28° C. for duration of the assay. After 4 days, the numbers of live thrips were counted on each flower, and along inner walls of each petri dish. The level of thrips mortality was extrapolated from pre-treatment thrips numbers.

[4] = system: Diamond back moth (Plutella xylostella); assay: B.2 Diamond back moth leaf-dip test on Chinese cabbage; conditions: 500 ppm; dipped Chinese cabbage leaves; mortality recorded 24, 72 and 120 hours after treatment
Protocol: B.2 Diamond back moth (Plutella xylostella)
Leaves of Chinese cabbage were dipped in test solution and air-dried. Treated leaves were placed in petri dished lined with moist filter paper. Mortality was recorded 24, 72, and 120 hours after treatment.

[5] = system: Green peach aphid (Myzus persicae); assay: B.3 Green peach aphid systemic test, artificial diet in 96-well plates; conditions: 2500 ppm, adult aphids, 3 days
From the text: B.3 Green peach aphid (Myzus persicae)
For evaluating control of green peach aphid (Myzus persicae) through systemic means the test unit consisted of 96-well-microtiter plates containing liquid artificial diet under an artificial membrane.
The compounds were formulated using a solution containing 75% v/v water and 25% v/v DMSO. Different concentrations of formulated compounds were pipetted into the aphid diet, using a custom built pipetter, at two replications.
After application, 5-8 adult aphids were placed on the artificial membrane inside the microtiter plate wells. The aphids were then allowed to suck on the treated aphid diet and incubated at about 23+1° C. and about 50+5% relative humidity for 3 days. Aphid mortality and fecundity was then visually assessed.

[6] = system: Mediterranean fruitfly (Ceratitis capitata); assay: B.4 Mediterranean fruitfly microtiter plate test on insect diet with eggs; conditions: 2500 ppm; sprayed onto insect diet at 5 μl; egg and larval mortality after 5 days
Protocol: B.4 Mediterranean fruitfly (Ceratitis capitata)
For evaluating control of Mediterranean fruitfly (Ceratitis capitata) the test unit consisted of microtiter plates containing an insect diet and 50-80 C. capitate eggs.
The compounds were formulated using a solution containing 75% v/v water and 25% v/v DMSO. Different concentrations of formulated compounds were sprayed onto the insect diet at 5 μl, using a custom built micro atomizer, at two replications.
(§1) After application, microtiter plates were incubated at about 28±1° C. and about 80±5% relative humidity for 5 days. Egg and larval mortality was then visually assessed.

[7] = system: Tobacco budworm (Heliothis virescens); assay: B.9 Tobacco budworm microtiter plate test on insect diet with eggs; conditions: 2500 ppm; sprayed onto insect diet at 10 μl; egg and larval mortality after 5 days
Protocol: B.9 Tobacco budworm (Heliothis virescens) HELVI
For evaluating control of tobacco budworm (Heliothis virescens) the test unit consisted of 96-well-microtiter plates containing an insect diet and 15-25 H. virescens eggs.
The compounds were formulated using a solution containing 75% v/v water and 25% v/v DMSO. Different concentrations of formulated compounds were sprayed onto the insect diet at 10 μl, using a custom built micro atomizer, at two replications.
as §1

Measured: mortality in comparison with untreated controls

Cc1cc(/C=C/C(=O)NC(c2cccc(C(F)(F)F)c2)C(F)(F)F)sc1C=NNC(=O)NCC(F)(F)F (racemic) [Compound 1-3]
at least 75%: [1] | [2]

Cc1cc(/C=C/C(=O)NC(c2cccc(C(F)(F)F)c2)C(F)(F)F)sc1C(=O)NCc1ccccn1 (racemic) [Compound 2-5]
at least 75%: [1] | [3] | [2]

CCS(CC)=NC(=O)c1sc(/C=C/C(=O)NC(c2cccc(C(F)(F)F)c2)C(F)(F)F)cc1C (racemic) [Compound 2-7]
at least 75%: [4] | [1] | [2]

Cc1cc(/C=C/C(=O)NC(c2cccc(C(F)(F)F)c2)C(F)(F)F)sc1C(=O)N1CC1 (stereo not shown) [Compound 2-8]
at least 75%: [1] | [2]

Cc1cc(/C=C/C(=O)NC(c2cccc(C(F)(F)F)c2)C(F)(F)F)sc1C(=O)N=S(C(C)C)C(C)C (stereo not shown) [Compound 2-10]
at least 75%: [1] | [2]

Cc1cc(/C=C/C(=O)NC(c2cccc(C(F)(F)F)c2)C(F)(F)F)sc1C(=O)N1CCC1 (stereo not shown) [Compound 2-11]
at least 75%: [5] | [1] | [2]

Cc1cc(/C=C/C(=O)NC(c2cccc(C(F)(F)F)c2)C(F)(F)F)sc1C(=O)N(C)C (stereo not shown) [Compound 2-12]
at least 75%: [4] | [1] | [3] | [2]

Cc1cc(/C=C/C(=O)NC(c2cccc(C(F)(F)F)c2)C(F)(F)F)sc1C(=O)NC(C)C (stereo not shown) [Compound 2-13]
at least 75%: [1] | [2]

Cc1cc(/C=C/C(=O)NC(c2cccc(C(F)(F)F)c2)C(F)(F)F)sc1C(=O)Nc1ccccc1 (stereo not shown) [Compound 2-15]
at least 75%: [5] | [4] | [1]

Cc1cc(/C=C/C(=O)NC(c2cccc(C(F)(F)F)c2)C(F)(F)F)sc1C(=O)NC1C[S+]([O-])C1 (stereo not shown) [Compound 2-18]
at least 75%: [5] | [1] | [3]

Cc1cc(/C=C/C(=O)NC(c2cccc(C(F)(F)F)c2)C(F)(F)F)sc1C(=O)NC(C)C(F)(F)F (stereo not shown) [Compound 2-20]
at least 75%: [4] | [1] | [6] | [2] | [7]

Cc1cc(/C=C/C(=O)NC(c2cccc(C(F)(F)F)c2)C(F)(F)F)sc1C(=O)NCC(=O)NCC(F)(F)F (stereo not shown) [Compound 2-21]
at least 75%: [4] | [1] | [6] | [3] | [2]

Cc1cc(/C=C/C(=O)NC(c2cccc(C(F)(F)F)c2)C(F)(F)F)sc1C(=O)Nc1cccnc1 (stereo not shown) [Compound 2-22]
at least 75%: [5] | [4] | [1] | [3] | [2]

Cc1cc(/C=C/C(=O)NC(c2cccc(C(F)(F)F)c2)C(F)(F)F)sc1C(=O)Nc1ccncc1 (stereo not shown) [Compound 2-23]
at least 75%: [4] | [1] | [6] | [3] | [2]

Cc1cc(/C=C/C(=O)NC(c2cccc(C(F)(F)F)c2)C(F)(F)F)sc1C(=O)NCc1cscn1 (stereo not shown) [Compound 2-24]
at least 75%: [5] | [1] | [2]

Cc1cc(/C=C/C(=O)NC(c2cccc(C(F)(F)F)c2)C(F)(F)F)sc1C(=O)NC(C)CF (stereo not shown) [Compound 2-25]
at least 75%: [5] | [4] | [1] | [6] | [2]

Cc1cc(/C=C/C(=O)NC(c2cccc(C(F)(F)F)c2)C(F)(F)F)sc1C(=O)NCC#N (stereo not shown) [Compound 2-28]
at least 75%: [5] | [4] | [1] | [3]

C#CCNC(=O)c1sc(/C=C/C(=O)NC(c2cccc(C(F)(F)F)c2)C(F)(F)F)cc1C (stereo not shown) [Compound 2-29]
at least 75%: [5] | [4] | [1] | [6] | [3]

CC(=O)NCc1sc(/C=C/C(=O)NC(c2cccc(C(F)(F)F)c2)C(F)(F)F)cc1C (stereo not shown) [Compound 3-3]
at least 75%: [5] | [1] | [3]

CCC(=O)NCc1sc(/C=C/C(=O)NC(c2cccc(C(F)(F)F)c2)C(F)(F)F)cc1C (stereo not shown) [Compound 3-4]
at least 75%: [5] | [4] | [1] | [6] | [3] | [2]

CNC(=O)NCc1sc(/C=C/C(=O)NC(c2cccc(C(F)(F)F)c2)C(F)(F)F)cc1C (stereo not shown) [Compound 3-7]
at least 75%: [5] | [1] | [3]
